PubChem BioAssay AID1159593 | NIAID, 2016

Aim: 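Canonical TLR pathway genes needed for NF-kappaB activation by LPS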
Cells: RAW264.7 macrophages of mouse, with reporters for p65 (GFP) and the Tnf promoter (mCherry)
Reagent: single siRNA against mouse genes
Duration: 48 to 72 hours after siRNA transfection, then LPS for 40 min
Conditions: LPS (Salmonella minnesota R595) for 40 min before fixation; dose not given
Detection: 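Imaged nuclear over cytoplasmic GFP-p65 intensity after 40 min LPS, normalised per plate by median and MAD, robust z-score versus negative controls, mean of replicates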
Reading the numbers: p65 translocation z-score: higher = more nuclear NF-kappaB p65 after LPS
Active means: 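z scored in tiers by size in both directions (1, 1.5, 2, 2.5); stated active cut-off missing, but called actives lie near absolute z 1.5 or above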
Meaning of the calls: active = changed p65 translocation (either direction); inactive = no clear change
The deposit covers 756 reagents; this is a part drawn at random. Of all reagents, 137 (18%) are marked active. 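Active means p65 translocation went either up or down; genes were judged on the median of six siRNAs, not single siRNAs.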 Reagents against one gene are numbered here. No sequences are given here. The record does not give: the amount of reagent.

Tlr9 (toll-like receptor 9) #1: p65 translocation z-score = -1.19; outcome = inactive
Tlr9 (toll-like receptor 9) #2: p65 translocation z-score = -0.77; outcome = inactive
Tlr9 (toll-like receptor 9) #3: p65 translocation z-score = -0.293; outcome = inactive
Tlr9 (toll-like receptor 9) #4: p65 translocation z-score = -0.739; outcome = inactive
Tlr9 (toll-like receptor 9) #5: p65 translocation z-score = 0.541; outcome = inactive
Tlr9 (toll-like receptor 9) #6: p65 translocation z-score = -0.164; outcome = inactive
Pik3r3 (phosphoinositide-3-kinase regulatory subunit 3) #1: p65 translocation z-score = 0.381; outcome = inactive
Pik3r3 (phosphoinositide-3-kinase regulatory subunit 3) #2: p65 translocation z-score = 0.225; outcome = inactive
Pik3r3 (phosphoinositide-3-kinase regulatory subunit 3) #3: p65 translocation z-score = 1.55; outcome = active
Pik3r3 (phosphoinositide-3-kinase regulatory subunit 3) #4: p65 translocation z-score = -1.62; outcome = active
Pik3r3 (phosphoinositide-3-kinase regulatory subunit 3) #5: p65 translocation z-score = 0.139; outcome = inactive
Pik3r3 (phosphoinositide-3-kinase regulatory subunit 3) #6: p65 translocation z-score = 0.886; outcome = inactive
